From article PMC10217356
Results are given in words; binding and its absence hold for the method and conditions named. In cells and extracts the contact can be indirect. Here binding means that the protein was enriched with, or labelled near, the bait; the list need not be complete. Tags and fused reporters may be left off the sequences shown.

By UniProt entry, the sequences of proteins in these tests, tags left out. Where a name states a change or a piece, a line headed by the entry shows the natural chain unless it says otherwise.
UniProt Q31LN3: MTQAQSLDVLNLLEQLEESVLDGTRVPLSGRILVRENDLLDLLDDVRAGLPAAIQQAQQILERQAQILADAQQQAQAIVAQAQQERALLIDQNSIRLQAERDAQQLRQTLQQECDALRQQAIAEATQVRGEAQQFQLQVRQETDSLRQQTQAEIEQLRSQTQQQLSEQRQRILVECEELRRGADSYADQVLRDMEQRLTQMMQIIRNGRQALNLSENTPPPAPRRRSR
UniProt Q31N73: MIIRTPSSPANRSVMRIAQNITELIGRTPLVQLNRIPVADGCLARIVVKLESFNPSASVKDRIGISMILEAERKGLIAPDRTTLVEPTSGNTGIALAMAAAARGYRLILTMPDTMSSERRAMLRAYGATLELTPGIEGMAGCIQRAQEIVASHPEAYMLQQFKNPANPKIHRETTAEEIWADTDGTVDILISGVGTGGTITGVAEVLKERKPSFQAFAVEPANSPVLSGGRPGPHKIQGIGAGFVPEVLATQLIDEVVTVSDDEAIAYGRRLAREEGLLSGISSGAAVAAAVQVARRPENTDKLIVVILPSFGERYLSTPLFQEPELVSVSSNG
UniProt Q55024: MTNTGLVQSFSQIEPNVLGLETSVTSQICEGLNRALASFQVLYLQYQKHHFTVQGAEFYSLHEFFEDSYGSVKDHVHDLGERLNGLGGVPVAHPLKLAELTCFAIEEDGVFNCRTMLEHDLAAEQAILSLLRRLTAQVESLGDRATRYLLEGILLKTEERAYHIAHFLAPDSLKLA
UniProt Q31M73: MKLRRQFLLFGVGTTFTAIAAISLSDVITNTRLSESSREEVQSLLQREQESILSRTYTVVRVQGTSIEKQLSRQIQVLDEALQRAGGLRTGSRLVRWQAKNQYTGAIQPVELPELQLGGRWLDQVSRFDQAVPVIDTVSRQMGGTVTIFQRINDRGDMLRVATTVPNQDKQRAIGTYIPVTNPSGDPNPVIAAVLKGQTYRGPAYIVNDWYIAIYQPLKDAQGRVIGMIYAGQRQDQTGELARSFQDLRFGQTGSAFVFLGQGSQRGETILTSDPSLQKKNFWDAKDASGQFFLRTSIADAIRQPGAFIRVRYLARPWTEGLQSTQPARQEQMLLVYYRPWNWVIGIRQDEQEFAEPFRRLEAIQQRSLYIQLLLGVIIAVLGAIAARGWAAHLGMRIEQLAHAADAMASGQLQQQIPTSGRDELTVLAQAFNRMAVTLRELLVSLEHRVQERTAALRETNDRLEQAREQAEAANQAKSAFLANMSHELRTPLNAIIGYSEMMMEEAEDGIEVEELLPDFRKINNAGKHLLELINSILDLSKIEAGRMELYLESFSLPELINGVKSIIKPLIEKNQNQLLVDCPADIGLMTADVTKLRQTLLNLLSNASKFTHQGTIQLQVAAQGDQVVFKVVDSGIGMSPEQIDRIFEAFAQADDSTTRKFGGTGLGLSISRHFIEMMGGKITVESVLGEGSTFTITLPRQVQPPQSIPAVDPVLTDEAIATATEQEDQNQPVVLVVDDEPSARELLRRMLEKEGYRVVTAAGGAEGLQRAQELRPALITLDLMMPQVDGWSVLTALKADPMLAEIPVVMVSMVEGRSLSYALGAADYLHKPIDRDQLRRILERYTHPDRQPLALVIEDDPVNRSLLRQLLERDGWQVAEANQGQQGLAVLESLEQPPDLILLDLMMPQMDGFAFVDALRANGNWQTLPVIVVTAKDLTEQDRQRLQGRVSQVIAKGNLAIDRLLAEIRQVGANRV
UniProt Q31RR7: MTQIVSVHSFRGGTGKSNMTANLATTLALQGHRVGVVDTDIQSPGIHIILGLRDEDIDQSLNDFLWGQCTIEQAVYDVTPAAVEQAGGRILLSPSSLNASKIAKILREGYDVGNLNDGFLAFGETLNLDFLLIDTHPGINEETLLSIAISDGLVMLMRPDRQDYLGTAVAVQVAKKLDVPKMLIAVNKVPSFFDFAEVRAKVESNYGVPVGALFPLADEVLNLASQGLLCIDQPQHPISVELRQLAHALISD
UniProt Q31PU3: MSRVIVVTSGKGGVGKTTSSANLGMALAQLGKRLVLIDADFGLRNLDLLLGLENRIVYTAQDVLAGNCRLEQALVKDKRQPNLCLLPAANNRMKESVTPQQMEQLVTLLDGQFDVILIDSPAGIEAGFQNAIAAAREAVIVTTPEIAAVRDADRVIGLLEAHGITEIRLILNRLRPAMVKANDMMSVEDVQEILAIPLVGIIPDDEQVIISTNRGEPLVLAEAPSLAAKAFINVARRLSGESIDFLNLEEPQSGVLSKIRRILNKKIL
UniProt Q31K18: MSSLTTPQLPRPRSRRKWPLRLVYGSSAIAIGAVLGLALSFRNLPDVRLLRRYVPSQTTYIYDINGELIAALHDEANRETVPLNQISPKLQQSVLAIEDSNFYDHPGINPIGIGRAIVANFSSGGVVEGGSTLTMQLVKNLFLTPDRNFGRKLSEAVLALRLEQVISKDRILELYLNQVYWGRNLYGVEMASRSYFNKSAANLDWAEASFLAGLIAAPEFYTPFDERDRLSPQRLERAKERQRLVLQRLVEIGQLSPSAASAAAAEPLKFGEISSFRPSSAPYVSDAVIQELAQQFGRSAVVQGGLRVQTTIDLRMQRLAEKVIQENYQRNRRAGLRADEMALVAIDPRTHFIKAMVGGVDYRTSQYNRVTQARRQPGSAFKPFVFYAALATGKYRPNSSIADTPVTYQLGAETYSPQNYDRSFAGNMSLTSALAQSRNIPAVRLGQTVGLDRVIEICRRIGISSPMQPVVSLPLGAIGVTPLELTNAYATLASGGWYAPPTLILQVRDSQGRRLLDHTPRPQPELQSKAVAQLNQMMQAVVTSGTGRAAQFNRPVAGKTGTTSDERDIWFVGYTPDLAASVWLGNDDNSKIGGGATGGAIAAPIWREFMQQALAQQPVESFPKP
UniProt Q31KE5: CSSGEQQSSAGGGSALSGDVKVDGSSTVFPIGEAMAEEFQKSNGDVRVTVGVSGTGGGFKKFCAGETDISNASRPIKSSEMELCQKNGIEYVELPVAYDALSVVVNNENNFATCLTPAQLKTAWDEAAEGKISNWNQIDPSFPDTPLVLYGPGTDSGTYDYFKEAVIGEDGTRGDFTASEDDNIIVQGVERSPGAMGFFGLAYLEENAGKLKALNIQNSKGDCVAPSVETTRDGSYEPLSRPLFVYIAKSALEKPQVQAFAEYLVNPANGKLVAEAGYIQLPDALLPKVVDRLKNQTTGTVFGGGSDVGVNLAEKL
UniProt Q31PH9: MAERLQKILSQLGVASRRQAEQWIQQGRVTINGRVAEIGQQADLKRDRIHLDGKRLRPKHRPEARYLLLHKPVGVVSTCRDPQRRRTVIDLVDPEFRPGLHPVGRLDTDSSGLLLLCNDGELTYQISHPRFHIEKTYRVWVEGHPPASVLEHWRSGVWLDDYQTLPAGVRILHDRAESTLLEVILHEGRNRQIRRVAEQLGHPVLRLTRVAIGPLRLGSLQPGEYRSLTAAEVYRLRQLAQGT
UniProt Q31LV5: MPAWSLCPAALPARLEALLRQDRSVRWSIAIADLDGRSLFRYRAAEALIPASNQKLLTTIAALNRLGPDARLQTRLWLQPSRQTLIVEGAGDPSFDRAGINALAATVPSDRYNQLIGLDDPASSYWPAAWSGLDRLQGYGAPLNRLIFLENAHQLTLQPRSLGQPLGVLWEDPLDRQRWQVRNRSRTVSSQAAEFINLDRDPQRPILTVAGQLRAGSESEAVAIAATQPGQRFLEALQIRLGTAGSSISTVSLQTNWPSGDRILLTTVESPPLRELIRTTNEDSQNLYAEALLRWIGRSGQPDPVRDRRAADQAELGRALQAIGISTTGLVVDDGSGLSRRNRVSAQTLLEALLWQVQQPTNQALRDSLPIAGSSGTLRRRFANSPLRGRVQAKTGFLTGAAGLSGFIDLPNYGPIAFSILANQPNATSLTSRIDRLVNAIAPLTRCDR
UniProt Q93AK0: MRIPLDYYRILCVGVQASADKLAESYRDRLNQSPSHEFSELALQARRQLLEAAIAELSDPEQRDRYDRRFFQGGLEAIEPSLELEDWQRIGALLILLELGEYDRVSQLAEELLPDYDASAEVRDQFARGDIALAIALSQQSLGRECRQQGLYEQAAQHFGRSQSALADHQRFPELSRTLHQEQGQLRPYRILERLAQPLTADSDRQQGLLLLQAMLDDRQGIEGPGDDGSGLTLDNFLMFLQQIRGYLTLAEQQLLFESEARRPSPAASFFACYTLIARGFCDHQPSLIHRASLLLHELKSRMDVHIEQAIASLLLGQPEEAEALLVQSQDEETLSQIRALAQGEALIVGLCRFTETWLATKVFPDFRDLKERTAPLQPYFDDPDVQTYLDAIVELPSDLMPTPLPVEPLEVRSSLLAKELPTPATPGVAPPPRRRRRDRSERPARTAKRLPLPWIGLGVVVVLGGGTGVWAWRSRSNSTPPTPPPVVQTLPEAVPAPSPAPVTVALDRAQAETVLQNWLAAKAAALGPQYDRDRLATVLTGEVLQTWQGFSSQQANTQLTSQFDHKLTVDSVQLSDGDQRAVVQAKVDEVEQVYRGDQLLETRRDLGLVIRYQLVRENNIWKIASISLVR
UniProt Q31MB0: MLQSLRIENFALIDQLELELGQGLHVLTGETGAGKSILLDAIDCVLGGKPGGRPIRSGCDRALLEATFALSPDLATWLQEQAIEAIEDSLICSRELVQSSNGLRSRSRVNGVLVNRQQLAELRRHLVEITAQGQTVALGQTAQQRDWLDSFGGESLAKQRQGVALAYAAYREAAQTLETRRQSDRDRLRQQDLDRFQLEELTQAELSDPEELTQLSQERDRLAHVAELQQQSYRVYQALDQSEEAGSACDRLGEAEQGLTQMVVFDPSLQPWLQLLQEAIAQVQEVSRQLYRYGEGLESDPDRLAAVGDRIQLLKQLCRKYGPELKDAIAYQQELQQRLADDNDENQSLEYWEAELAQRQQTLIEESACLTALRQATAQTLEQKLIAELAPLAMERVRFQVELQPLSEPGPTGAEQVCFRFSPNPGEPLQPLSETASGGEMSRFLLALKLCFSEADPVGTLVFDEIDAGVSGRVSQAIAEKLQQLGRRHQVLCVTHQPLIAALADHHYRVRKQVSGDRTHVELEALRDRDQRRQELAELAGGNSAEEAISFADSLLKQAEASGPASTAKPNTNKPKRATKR
UniProt Q31RU6: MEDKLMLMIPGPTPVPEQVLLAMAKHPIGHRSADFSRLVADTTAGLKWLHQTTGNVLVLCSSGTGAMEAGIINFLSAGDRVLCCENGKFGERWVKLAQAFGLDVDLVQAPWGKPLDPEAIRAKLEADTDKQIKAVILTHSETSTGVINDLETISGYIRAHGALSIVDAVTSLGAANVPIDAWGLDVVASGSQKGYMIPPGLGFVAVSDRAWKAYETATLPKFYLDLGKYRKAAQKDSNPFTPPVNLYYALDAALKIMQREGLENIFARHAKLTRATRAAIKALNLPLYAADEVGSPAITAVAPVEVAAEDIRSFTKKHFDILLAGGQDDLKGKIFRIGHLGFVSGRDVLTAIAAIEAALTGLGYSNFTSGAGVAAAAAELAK
UniProt Q31N35: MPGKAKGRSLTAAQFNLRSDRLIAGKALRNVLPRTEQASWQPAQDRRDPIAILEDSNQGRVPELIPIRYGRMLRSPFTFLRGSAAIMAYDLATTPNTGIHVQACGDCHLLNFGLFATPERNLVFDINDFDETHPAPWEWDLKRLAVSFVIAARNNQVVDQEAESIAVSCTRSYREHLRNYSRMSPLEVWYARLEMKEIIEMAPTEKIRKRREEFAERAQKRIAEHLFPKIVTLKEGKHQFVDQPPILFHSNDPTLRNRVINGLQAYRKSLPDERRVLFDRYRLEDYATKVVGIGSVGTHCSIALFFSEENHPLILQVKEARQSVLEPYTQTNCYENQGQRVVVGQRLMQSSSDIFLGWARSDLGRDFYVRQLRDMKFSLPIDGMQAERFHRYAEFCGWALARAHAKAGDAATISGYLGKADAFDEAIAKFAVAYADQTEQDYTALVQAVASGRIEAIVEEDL

Molecular target: T1, FtsZ-GFP (Synechococcus elongatus PCC7942) (UniProt O85785)
T1 sequence: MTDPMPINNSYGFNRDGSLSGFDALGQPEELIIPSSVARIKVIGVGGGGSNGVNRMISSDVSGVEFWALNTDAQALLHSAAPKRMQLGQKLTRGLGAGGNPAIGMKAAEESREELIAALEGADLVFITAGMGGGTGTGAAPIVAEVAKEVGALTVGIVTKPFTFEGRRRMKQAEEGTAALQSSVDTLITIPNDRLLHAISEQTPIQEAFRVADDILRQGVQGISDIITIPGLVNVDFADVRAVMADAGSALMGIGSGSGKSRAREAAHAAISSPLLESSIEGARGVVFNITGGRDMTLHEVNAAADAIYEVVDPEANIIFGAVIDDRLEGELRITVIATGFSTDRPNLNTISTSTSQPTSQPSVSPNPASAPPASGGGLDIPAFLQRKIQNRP
Test: affinity purification with mass spectrometry; FtsZ-GFP as bait; total protein extracts (4 mg/IP) of S. elongatus cells of the exponential, stationary and late stationary phase; anti-GFP antibody-coupled magnetic beads, trypsin digest in column, LC-MS/MS; non-antibody and GFP negative controls; three repetitions

Substance | binding
CDV3 (from UniProt Q31LN3) | binds
Cystein synthase (from UniProt Q31N73) | binds
DNA protect. during starvation (from UniProt Q55024) | binds
His kinase (from UniProt Q31M73) | binds
MinD2 (from UniProt Q31RR7) | binds
MinD (from UniProt Q31PU3) | binds
Penicillin-binding prot 1A (from UniProt Q31K18) | binds
Phosphate binding protein (from UniProt Q31KE5) | binds
rib. pseudouridine synth (from UniProt Q31PH9) | binds

The next lines start with the values.

binding | Substance
binds | D-Ala-D-Ala carboxypeptidase (from UniProt Q31LV5)
binds | Ftn2 (from UniProt Q93AK0)
binds | RecN DNA repair (from UniProt Q31MB0)
binds | Ser-glyoxylate transaminase (from UniProt Q31RU6)
binds | Unchar. prot (from UniProt Q31N35)
